PubChem BioAssay (EPA / NIEHS)
The hits were mostly taken out for another list; the other results follow. Inconclusive results are not listed. Active and inactive are the calls of the source. The calls were made as follows: active = hit-call score of the fitted dose curve at least 0.9, where 1 is the maximum; inconclusive = response in the unintended direction; inactive = score below 0.9.

Tested on: not listed separately
Test: ACEA_AR_antagonist_AUC_viability: ACEA Biosciences xCELLigence Real-Time Cell Analysis on Androgen Receptor Antagonism for Viability (AID 2283776);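 also: 22Rv1 human prostate cancer cells growing on impedance electrode plates; area under impedance growth curve at 80 h after dosing as viability; hits lower the growth signal relative to DMSO meaning cytotoxicity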
Method in brief: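 22Rv1 prostate cells, continuous dosing up to 100 uM final (0.5% DMSO max), duplicate plates. Growth measured by impedance; AUC at 80 h, loss of signal vs DMSO.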

SMILES | outcome | AC50
CCCCCC1C(=O)CCC1CC(=O)OC (centres undefined) | inactive | 
O=C(O)C1CCC(C(=O)O)CC1 (centres undefined) | inactive | 
C=C(C)C(=O)OCCOC1CC2CC1C1C=CCC21 (centres undefined) | inactive | 
c1ccc2scnc2c1 | inactive | 
CC(=O)OC(C)(C)C | inactive | 
CCO[Si](CCCN)(OCC)OCC | inactive | 
NC(=O)N(O)[C@@H]1COc2cc(OCc3ccccc3)ccc21 |  | active: 24.4 µM
NC(=O)Nc1ccc(Cl)cc1 | inactive | 
c1ccc(CCCc2ccccn2)cc1 | inactive | 
CCCCOCCOC(=O)COc1nc(Cl)c(Cl)cc1Cl | inactive | 
CCCCNC(=S)NCCCC | inactive | 
CCCCCCC(=O)c1ccccc1 | inactive | 
CCCCOC(=O)[C@H](C)O | inactive | 
CN(C)C | inactive | 
[O-]/[N+](=N\O)c1ccccc1 | inactive | 
CC(=O)c1ccccc1O | inactive | 
CCCCCCOC(=O)c1ccccc1 | inactive | 
CCCCN(CCCC)CCCCCCN(CCCC)CCCC | inactive | 
O=CCc1ccccc1 | inactive | 
CC(=O)/C=C/C1C(C)=CCCC1(C)C (centres undefined) | inactive | 
Cc1cc(C)c(C)cc1C | inactive | 
CCCCNS(=O)(=O)c1ccc(C)cc1 | inactive | 
COc1ccc(OC)cc1 | inactive | 
CCC(C)COC(=O)CC(C)C (centres undefined) | inactive | 
CC(C)(C)c1ccc(S)cc1 | inactive | 
O=c1c(O)c(-c2ccc(O)cc2O)oc2cc(O)cc(O)c12 | inactive | 
CN(C)c1ccc(N=Nc2ccccc2C(=O)O)cc1 |  | active: 3.3 µM
CC(=O)C=CC1=C(C)CCCC1(C)C | inactive | 
O=C1CCCC1 | inactive | 
CCCCCCCCCCN | inactive | 

Tested on: Sodium/Iodide Symporter (NIS), SLC5A5 (gene 6528)
Test: CPHEA_Stoker_NIS_Inhibition_RAIU: CPHEA's Radioactive Iodide Uptake (RAIU) Assay for Sodium/Iodide Symporter (NIS) Inhibition, Stoker and Laws Labs (AID 2283841)
Method in brief: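 Iodide uptake through human NIS is measured in an engineered HEK293T line. Cells take up 125I (329pM final) for 2 hours at room temperature alongside chemicals at 0.001–100uM. Retained radioactivity is counted, and the signal is expressed against DMSO controls.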

SMILES | outcome
O=CCc1ccccc1 | inactive
CCCCCCCC/C=C\CCCCCCCC(=O)N(C)CC(=O)O | inactive
C1CN(SSN2CCOCC2)CCO1 | inactive
CC(C)=CCC[C@](C)(O)[C@@H]1CC=C(C)CC1 | inactive
